Record: PubChem BioAssay AID1508588 (Peter MacCallum Cancer Centre, 2020)
The whole screen tested about 18,000 reagents; this is a part drawn at random. 790 of them (4.4%) were called active. 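Calls rest on a combination of fold-change classes in drug and vehicle arms, not all shown here.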 Entries without a mark were called inactive. Reagent sequences are not shown.

- Aim: 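Knock-downs boosting vemurafenib effects on melanoma cell growth or lactate release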 (primary screen)
- Cell system: human WM266.4 melanoma cells (BRAF V600 mutant)
- Reagent: siRNA pool against human genes, 40 nM
- Time to read-out: 96 h from transfection to read-out
- Conditions: vemurafenib 300 nM (about IC25), added 48 h after transfection, for 48 h; comparison arm got DMSO vehicle only
- Read-out: 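Cell gain (DAPI nuclei at end minus before drug, mean of two replicates) and medium lactate by absorbance per cell, both as ratio to non-targeting siRNA, also grouped into fold-change classes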
- Reading the numbers: cell gain with vemurafenib: higher = more cell gain than with non-targeting siRNA; lactate per cell with vemurafenib: higher = more lactate made per cell
- Active means: 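a knock-down counts as enhancing when its fold-change classes with vehicle and with vemurafenib, taken together, show a stronger drug effect on cell gain or lactate per cell; exact class pairs not stated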
- Meaning of the calls: active = enhances vemurafenib effect; inactive = no enhancement seen

Target gene | PubChem SID | cell gain with vemurafenib | lactate per cell with vemurafenib
ABCE1 | SID135621624 | 0.61 | 0.84
TMCC1 | SID152147457 | 0.58 | 0.94
CLPTM1 | SID152151861 | 0.39 | 0.46
ALX4 | SID135622650 | 0.46 | 0.65
UTS2 | SID152149226 | 0.65 | 1.07
INSL4 | SID135622180 | 0.73 | 1.96
SLC7A7 | SID152150248 | 0.57 | 0.8
BUB1 | SID152152440 | 0.47 | 1.56
GSG1L | SID152156657 | 0.38 | 1.02
MED9 | SID134317585 | 0.26 | 1.22
TMEM65 | SID152154767 | 0.76 | 1.04
INTS12 | SID152149378 | 0.96 | 0.77
NKD1 | SID134322810 | 0.59 | 0.62
TOMM70 | SID135624157 | 0.54 | 0.84
GTPBP3 | SID134319023 | 0.99 | 0.94
MIR22HG | SID135622868 | 0.71 | 0.75
EFCAB7 | SID152155545 | 0.25 | 1.82
ADIPOQ | SID134316249 | 0.8 | 0.72
OR4D1 | SID135624356 | 0.27 | 1.57
PREB | SID134321576 | 0.69 | 1.24
CTNS | SID135623870 | 0.8 | 1.06
DDA1 | SID152153669 | 0.82 | 0.64
TMEM82 | SID152155526 | 0.78 | 0.65
ALOX12B | SID152152719 | 1.06 | 1.23
EEA1 | SID152152126 | 0.83 | 1
GSTM5 | SID134315536 | 0.52 | 0.29
GPR149 | SID152154377 | 1.15 | 0.9
FZD6 | SID135621007 | 0.99 | 1.19
ZFP14 | SID152148718 | 0.53 | 1.07
DAZ3 | SID135624106 | 0.29 | 1.25
ARHGAP20 | SID152152494 | 0.33 | 1.72
HS3ST3B1 | SID152152345 | 0.7 | 1.06
EPN3 | SID152151327 | 0.52 | 0.42
NOS2 | SID135621729 | 1.15 | 0.62
CNTNAP4 | SID152150773 | 0.26 | 0.82
TMEM174 | SID135623195 | 0.87 | 1.16
NUPR1 | SID135622409 | 0.68 | 0.42
GOLGA8F | SID135625316 | 0.53 | 1.86
GOLPH3L | SID152152963 | 0.35 | 1.22
RAB2A | SID134315033 | 1 | 0.5
USH1G | SID134323074 | 0.52 | 1.6
GGT2P | SID152155665 | 0.46 | 0.73
CST4 | SID134315959 | 0.61 | 1.17
TTN | SID135620980 | 0.4 | 1.32
LZTS3 | SID134317661 | 0.52 (active) | 0.38
CDH7 | SID152156521 | 0.88 | 1.15
ARSI | SID152153605 | 0.59 | 0.75
TOR4A | SID135624039 | 0.65 | 0.98
MEGF6 | SID152150015 | 0.66 | 1.12
LGALS7B | SID135625544 | 0.74 | 1.9
UGT3A1 | SID134313294 | 0.74 | 1.48
DSCR9 | SID152151758 | 1.36 | 0.68
KSR1 | SID152156641 | 0.04 | 0.62
DPRX | SID135625389 | 0.78 | 0.7
PRPF19 | SID135620864 | 0.98 | 0.82
C14orf181 (retired record) | SID152156607 | 0.13 | 2.12
PLPPR3 | SID152149457 | 1.21 | 0.8
MAST3 | SID152151496 | 1.1 | 0.76
QRSL1 | SID152151740 | 1.07 | 0.56
TSBP1 | SID152149144 | 0.21 | 0.94
TSNAXIP1 | SID152147375 | 0.44 | 0.34
TMEM98 | SID135623952 | 0.95 | 1.17
DNER | SID152149558 | 0.28 | 0.58
ZNF45 | SID135623386 | 0.56 | 1.07
CERCAM | SID134323235 | 0.99 | 0.76
DNMT3B | SID134311770 | 0.47 | 0.9
OLFM1 | SID135622269 | 0.81 | 0.9
IGFL4 | SID134329821 | 0.73 | 0.72
CDKAL1 | SID152150065 | 0.63 | 0.86
ROPN1L | SID152146926 | 0.29 | 0.84
HSPBAP1 | SID152149546 | 0.03 (active) | 0.16
PECR | SID152153351 | 0.5 | 1.98
TUT7 | SID135624528 | 0.71 | 0.5
CDRT15P3 | SID134330015 | 0.05 | 2.38
ATP13A1 | SID152148979 | 0.75 | 0.72
APOC3 | SID152148244 | 0.78 | 0.53
XKRYP7 | SID134329817 | 0.57 | 1.12
CLCA3P | SID152156197 | 0.74 | 0.58
CSPG5 | SID152148930 | 0.46 | 0.25
TMEM35A | SID135622600 | 1.03 | 0.8
RGN | SID152156481 | 0.31 | 0.6
TMEM263 | SID134319521 | 0.42 | 1.03
SYT8 | SID135623691 | 0.36 | 0.71
GNPTG | SID134318999 | 0.35 | 1.63
